According to patent US20140206624A1, “TREATMENT OF LEUKEMIA” (THE BRIGHAM AND WOMEN'S HOSPITAL, INC., priority 2011, published 2014):
For at least one compound, name, drawing or mass did not settle the structure.

Tested on: MLL-AF9-expressing leukemia BM cells
Assay: CD11b and Gr-1 expression by flow cytometry
Assay type: cell-based, mouse
Settings: in the presence of rapamycin (10 nM, 100 nM)

CO[C@H]1C[C@@H]2CC[C@@H](C)[C@@](O)(O2)C(=O)C(=O)N2CCCC[C@H]2C(=O)O[C@H]([C@H](C)C[C@@H]2CC[C@@H](O)[C@H](OC)C2)CC(=O)[C@H](C)/C=C(\C)[C@@H](O)[C@@H](OC)C(=O)[C@H](C)C[C@H](C)/C=C/C=C/C=C/1C [rapamycin]
maturation related death mediated by myrAKT: occurred in the presence of rapamycin
